Results are given in words; binding and its absence hold for the method and conditions named. For part of these data: Binding seen in cells or lysates may run through a third protein. Some binding calls cover weakened binding; strength is not graded here.
T1: mitochondrial Morphology and Cristae Structure 1 (MICS1) (human (endogenous in HEK293)) (UniProt Q9H3K2)
T1 sequence: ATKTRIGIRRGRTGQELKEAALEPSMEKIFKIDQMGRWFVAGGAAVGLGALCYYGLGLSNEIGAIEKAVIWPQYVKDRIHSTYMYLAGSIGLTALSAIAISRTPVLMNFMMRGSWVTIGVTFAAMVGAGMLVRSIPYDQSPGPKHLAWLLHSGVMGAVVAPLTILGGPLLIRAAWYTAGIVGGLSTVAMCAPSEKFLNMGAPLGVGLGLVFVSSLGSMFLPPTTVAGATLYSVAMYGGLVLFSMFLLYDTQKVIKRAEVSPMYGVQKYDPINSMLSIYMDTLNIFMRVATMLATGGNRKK

Amino acid sequences for entries named in this document (tags omitted). Residues count along the entry.
UniProt O95202, residues 116-739: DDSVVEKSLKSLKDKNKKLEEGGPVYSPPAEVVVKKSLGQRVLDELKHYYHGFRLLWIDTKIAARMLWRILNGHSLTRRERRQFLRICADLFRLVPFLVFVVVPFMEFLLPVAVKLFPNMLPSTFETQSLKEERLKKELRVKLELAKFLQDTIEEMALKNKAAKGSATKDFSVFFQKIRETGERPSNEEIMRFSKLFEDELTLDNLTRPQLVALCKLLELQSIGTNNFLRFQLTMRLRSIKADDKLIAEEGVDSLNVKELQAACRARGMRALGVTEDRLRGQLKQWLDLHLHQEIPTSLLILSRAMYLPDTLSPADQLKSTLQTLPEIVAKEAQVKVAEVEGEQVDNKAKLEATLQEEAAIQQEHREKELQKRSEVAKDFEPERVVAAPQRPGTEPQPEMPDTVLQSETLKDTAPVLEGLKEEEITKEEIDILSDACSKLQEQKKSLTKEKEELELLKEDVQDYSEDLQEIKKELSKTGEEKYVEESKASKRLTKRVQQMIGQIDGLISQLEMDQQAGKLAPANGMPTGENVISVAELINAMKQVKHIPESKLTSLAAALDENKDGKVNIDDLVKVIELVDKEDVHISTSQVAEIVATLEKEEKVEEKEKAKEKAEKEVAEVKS


Experiments:
[1] = target: T1, mitochondrial Morphology and Cristae Structure 1 (MICS1) (human (endogenous in HEK293)); assay: co-IP
[2] = target: LETM1 (human (endogenous in HEK293)) (UniProt O95202); assay: native gel or EMSA
[3] = target: LETM1 (human (endogenous in HEK293)) (UniProt O95202); assay: co-IP

| binding [1] | binding [2] | binding [3] | Molecule |
| --- | --- | --- | --- |
| binds |  |  | LETM1 (from UniProt O95202 116-739) |
|  | binds | binds | mitochondrial Morphology and Cristae Structure 1 (MICS1) (protein, UniProt Q9H3K2 46-345) ATKTRIGIRRGRTGQELKEAALEPSMEKIFKIDQMGRWFVAGGAAVGLGALCYYGLGLSNEIGAIEKAVIWPQYVKDRIHSTYMYLAGSIGLTALSAIAISRTPVLMNFMMRGSWVTIGVTFAAMVGAGMLVRSIPYDQSPGPKHLAWLLHSGVMGAVVAPLTILGGPLLIRAAWYTAGIVGGLSTVAMCAPSEKFLNMGAPLGVGLGLVFVSSLGSMFLPPTTVAGATLYSVAMYGGLVLFSMFLLYDTQKVIKRAEVSPMYGVQKYDPINSMLSIYMDTLNIFMRVATMLATGGNRKK |
